From article PMC9454446
These are yes or no findings as the source states them, for the method shown. For some assays here: In cells and extracts the contact can be indirect. Some results given as binding are weak or reduced against the parent protein; the word gives no strength. For some assays here: Tags and fused reporters may be left off the sequences shown.

Chains of the proteins cited; added tags and fusions are not shown. Residues count along the entry.
UniProt P01375: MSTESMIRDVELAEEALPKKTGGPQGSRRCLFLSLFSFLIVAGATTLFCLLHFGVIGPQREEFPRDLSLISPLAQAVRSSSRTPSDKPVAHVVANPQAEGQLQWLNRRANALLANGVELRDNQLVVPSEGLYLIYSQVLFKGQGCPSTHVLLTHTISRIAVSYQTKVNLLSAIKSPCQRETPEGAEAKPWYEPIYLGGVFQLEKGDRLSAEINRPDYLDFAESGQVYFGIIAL
UniProt P21926: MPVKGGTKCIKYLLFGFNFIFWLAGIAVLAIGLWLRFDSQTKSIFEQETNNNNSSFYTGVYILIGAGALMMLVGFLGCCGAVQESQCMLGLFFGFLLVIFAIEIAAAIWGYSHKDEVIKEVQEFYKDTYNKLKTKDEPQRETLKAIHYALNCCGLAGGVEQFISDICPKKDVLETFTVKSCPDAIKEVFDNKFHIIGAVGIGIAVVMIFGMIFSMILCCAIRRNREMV
UniProt P78536, residues 215-824: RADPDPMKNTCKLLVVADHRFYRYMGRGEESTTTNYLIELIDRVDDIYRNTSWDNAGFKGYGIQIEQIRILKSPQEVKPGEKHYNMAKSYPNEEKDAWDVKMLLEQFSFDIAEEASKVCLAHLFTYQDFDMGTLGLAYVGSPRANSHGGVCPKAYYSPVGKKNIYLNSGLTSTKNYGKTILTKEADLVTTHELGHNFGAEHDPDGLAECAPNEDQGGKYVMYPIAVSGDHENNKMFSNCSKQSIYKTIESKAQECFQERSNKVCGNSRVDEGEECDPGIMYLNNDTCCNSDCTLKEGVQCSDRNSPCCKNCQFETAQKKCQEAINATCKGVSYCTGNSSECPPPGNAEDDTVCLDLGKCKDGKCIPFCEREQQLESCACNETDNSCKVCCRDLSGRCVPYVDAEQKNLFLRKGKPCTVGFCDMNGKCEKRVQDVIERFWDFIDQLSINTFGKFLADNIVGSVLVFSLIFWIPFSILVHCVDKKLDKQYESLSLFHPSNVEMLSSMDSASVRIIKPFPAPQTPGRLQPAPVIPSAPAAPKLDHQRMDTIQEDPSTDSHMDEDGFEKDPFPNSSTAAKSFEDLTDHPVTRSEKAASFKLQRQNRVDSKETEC

T1: endogenous Tspan8 (human (endogenous in HT29)) (UniProt P19075)
T1 sequence: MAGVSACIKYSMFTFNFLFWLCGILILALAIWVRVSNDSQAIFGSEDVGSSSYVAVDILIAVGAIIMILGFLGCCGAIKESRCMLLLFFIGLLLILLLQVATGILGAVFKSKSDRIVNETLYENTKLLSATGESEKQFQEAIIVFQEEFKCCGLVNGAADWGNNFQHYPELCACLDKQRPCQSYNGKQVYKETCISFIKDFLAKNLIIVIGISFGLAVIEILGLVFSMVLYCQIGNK

B1: Tspan8-CyPet (protein, UniProt P19075 1-237)
chain: T1 sequence
B2: Tspan8 fused to RFP-A or RFP-B (protein, UniProt P19075 1-237)
chain: T1 sequence
B3: CD81-CyPet (protein, UniProt P60033 1-236)
chain: MGVEGCTKCIKYLLFVFNFVFWLAGGVILGVALWLRHDPQTTNLLYLELGDKPAPNTFYVGIYILIAVGAVMMFVGFLGCYGAIQESQCLLGTFFTCLVILFACEVAAGIWGFVNKDQIAKDVKQFYDQALQQAVVDDDANNAKAVVKTFHETLDCCGSSTLTALTTSVLKNNLCPSGSNIISNLFKEDCHQKIDDLFSGKLYLIGIAAIVVAVIMIFEMILSMVLCCGIRNSSVY

Experiments:
TNFα-YPet = TNFα-YPet (UniProt P01375); assay: FRET or BRET; FRET microscopy of live transfected HEK293T cells; Tetraspanin-CyPet as donor, ADAM17-YPet or TNFα-YPet as acceptor; precision FRET after subtraction of spectral bleed through
[1] = biological target: T1, endogenous Tspan8 (human (endogenous in HT29)); assay: co-IP; HT29 cells, unstimulated or stimulated 30 min with 200 nM PMA or 1 µg/mL LPS; lysed in buffer with Brij97 (preserves the tetraspanin web) or digitonin (disrupts secondary interactions); Tspan8 immunoprecipitated with primary antibody and protein G-agarose, immunoblot
[2] = biological target: Tspan8 fused to RFP-A or RFP-B (UniProt P19075); assay: red fluorescent protein dimerization assay; transfected HEK293T cells, one protein fused to RFP-A and one to RFP-B; bright RFP hetero-dimer on interaction; confocal imaging of cells on the second day after transfection

Molecule	binding (TNFα-YPet)	also measured
CD9-CyPet (from UniProt P21926 1-228)	binds	–
endogenous ADAM17, mature form (from UniProt P78536 215-824) (enzyme)	–	binding [1]: binds
B1	binds	–
B2	–	binding [2]: binds
B3	no binding	–
